This is an account of results in patent US20030083469.

By UniProt entry, the sequences of proteins in these tests, tags left out. Where a name states a change or a piece, a line headed by the entry shows the natural chain unless it says otherwise.
UniProt P19793: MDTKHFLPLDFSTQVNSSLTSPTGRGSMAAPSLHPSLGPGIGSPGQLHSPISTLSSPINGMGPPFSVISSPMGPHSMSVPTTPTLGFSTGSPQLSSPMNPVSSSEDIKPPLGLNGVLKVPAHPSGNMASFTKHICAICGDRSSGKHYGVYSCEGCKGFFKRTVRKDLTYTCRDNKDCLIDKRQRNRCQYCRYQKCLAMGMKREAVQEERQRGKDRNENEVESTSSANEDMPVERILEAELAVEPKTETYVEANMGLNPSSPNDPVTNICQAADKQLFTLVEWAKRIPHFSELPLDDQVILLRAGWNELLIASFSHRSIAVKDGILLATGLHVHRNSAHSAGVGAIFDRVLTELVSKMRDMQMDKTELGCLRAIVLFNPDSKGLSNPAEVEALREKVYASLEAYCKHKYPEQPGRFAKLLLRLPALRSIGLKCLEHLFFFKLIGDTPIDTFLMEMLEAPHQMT

The target in this data set is RXRalpha (Homo sapiens) (UniProt P19793). Put plainly: activity in cells. Particulars: minimal activation with limiting RXR vector; LG69; protein in cells; only the site is given.

For “GTCACAGGTCACAGGTCACAGGTCACAGTTCA (double strand) [CRBPII]”, the “activity on this sequence” value is reported as “active”.
